Data on 2 molecules can be found in patent US20110129826A1.

Results are given in words; binding and its absence hold for the method and conditions named. For part of these data: Binding seen in cells or lysates may run through a third protein. Some results given as binding are weak or reduced against the parent protein; the word gives no strength. Where a sequence is shown, tags or fusion partners need not be part of it.

Experiment [1] concerns the target T1, BRCA1-associated protein (BRAP) from HeLa cell extract (UniProt Q7Z569).
T1 sequence (looked up): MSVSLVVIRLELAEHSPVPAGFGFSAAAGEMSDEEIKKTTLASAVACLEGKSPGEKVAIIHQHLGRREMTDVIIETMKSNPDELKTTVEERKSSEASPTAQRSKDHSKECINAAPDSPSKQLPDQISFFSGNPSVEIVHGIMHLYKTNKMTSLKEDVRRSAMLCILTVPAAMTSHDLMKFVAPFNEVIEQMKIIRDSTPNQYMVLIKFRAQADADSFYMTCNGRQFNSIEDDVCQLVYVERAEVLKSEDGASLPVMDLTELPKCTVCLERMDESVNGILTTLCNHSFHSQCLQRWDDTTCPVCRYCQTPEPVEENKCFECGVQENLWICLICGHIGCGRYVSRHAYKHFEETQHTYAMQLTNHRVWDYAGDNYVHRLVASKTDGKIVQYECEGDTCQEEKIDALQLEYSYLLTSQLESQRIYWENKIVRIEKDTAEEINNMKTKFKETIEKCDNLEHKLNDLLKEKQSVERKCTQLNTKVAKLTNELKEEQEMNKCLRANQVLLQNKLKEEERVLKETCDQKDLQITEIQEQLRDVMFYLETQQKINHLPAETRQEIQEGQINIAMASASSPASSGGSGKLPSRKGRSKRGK
The experiment is described as follows: recap of the tandem affinity purification result of Example 1.

The target in experiment [2] is T2, S-tagged BRAP (UniProt Q7Z569).
T2 sequence (looked up): T1 sequence (looked up)
The experiment is described as follows: co-immunoprecipitation from co-transfected COS7 cells (legend of FIG. 1b).

Experiment [3] has as its target T2, S-tagged BRAP. Description: co-immunoprecipitation from co-transfected COS7 cells with S-protein agarose or anti-Myc agarose, in both directions.

B1: galectin-2 expressed from the galectin-2 TAP vector (Myc tag at the N-terminus, TAP tag at the C-terminus) (protein, UniProt P05162 1-132, looked up, not shown: small tags and cut ends)
chain: MTGELEVKNMDMKPGSTLKITGSIADGTDGFVINLGQGTDKLNLHFNPRFSESTIVCNSLDGSNWGQEQREDHLCFSPGSEVKFTVTFESDKFKVKLPDGHELTFPNRLGHSHLSYLSVRGGFNMSSFKLKE
With B1, the binding result in experiment [1] is “binds”.

B2: Myc-tagged galectin-2 (protein, UniProt P05162 1-132, looked up, not shown: small tags and cut ends)
chain: B1 chain
Turning to B2, the binding result in the experiment with S-tagged BRAP [2] and with S-tagged BRAP [3] was “binds” each time.
